In patent publication US20240182562A1:
Results are given in words; binding and its absence hold for the method and conditions named. Some binding calls cover weakened binding; strength is not graded here.

Sequences of proteins named here, by UniProt entry; tags and fusion partners are left off. A change or cut given only in a name is not applied to a line headed by its entry. A line that says so, or that is headed by a name, gives the form on record, which may keep a tag or linker.
Human CLDN18.2 (P56856, form named): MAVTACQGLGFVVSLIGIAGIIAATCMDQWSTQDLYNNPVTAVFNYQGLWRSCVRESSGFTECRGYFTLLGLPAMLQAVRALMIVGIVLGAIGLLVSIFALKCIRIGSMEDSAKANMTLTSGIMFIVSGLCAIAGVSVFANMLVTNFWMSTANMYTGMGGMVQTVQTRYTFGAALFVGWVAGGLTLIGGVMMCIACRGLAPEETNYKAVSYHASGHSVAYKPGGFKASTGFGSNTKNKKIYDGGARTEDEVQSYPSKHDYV

Molecular target: Human CLDN18.2 (human) (UniProt P56856)
Assay: FACS on SP2/0-hCLDN18.2 cells (FIG. 12)

binding: binds
B1: 5E6-scFv (CLDN18.2 single-chain antibody) (scFv)
scFv: QVQLVQSGAEVKKPGASVKVSCKASGYTFTNYVMNWVRQAPGQRLEWMGYINPYNDGTKYNERFKGRVTITRDTSASTAYMELSSLRSEDTAVYYCARLYRGNAMDYWGQGTLVTVSSASTGGGGSGGGGSGGGGSDIVMTQSPDSLAVSLGERATINCKSSQSLLASGNQKNYLTWYQQKPGQPPKLLIYWASTRESGVPDRFSGSGSGTDFTLTISSLQAEDVAVYYCQNVYIYPFTFGQGTKLEIKR
